Results are given in words; binding and its absence hold for the method and conditions named. Binding calls can cover weak binding; strength is not graded here. Tags and fused reporters may be left off the sequences shown.

This assay has as its target T1, mouse Trip13 (aa 1-432) fused to LexA (N-LexA-Trip13-C) (mouse) (UniProt Q3UA06).
T1 sequence: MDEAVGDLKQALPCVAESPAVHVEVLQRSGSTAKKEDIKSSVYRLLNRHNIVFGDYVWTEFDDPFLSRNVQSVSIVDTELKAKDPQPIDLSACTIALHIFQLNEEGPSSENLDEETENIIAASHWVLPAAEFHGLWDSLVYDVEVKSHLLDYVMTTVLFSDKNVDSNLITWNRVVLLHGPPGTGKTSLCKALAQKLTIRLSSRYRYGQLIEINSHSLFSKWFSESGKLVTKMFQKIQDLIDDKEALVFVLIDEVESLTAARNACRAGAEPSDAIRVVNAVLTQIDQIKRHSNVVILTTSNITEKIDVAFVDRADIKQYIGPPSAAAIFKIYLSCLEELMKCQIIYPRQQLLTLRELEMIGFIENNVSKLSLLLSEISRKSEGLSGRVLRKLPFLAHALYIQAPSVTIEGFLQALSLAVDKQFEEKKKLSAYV
The assay can be described thus: two-hybrid; LexA-Trip13 (1-432) bait screened against a random-primed mouse kidney cDNA library in pP6 by mating; selection on medium lacking Trp, Leu, His with 50 mM 3-aminotriazole.

On to “tetratricopeptide domain 5 (TTC5), prey from a mouse kidney cDNA library (domain or fragment)”, for which the binding result is given as “binds”.
